Among the test systems are COL4A3BP (human); COL4A6 (human); COMMD1 (human); COMMD10 (human); COMMD4 (human); COMT (human); COMTD1 (human); COPB2 (human); COPS2 (human); COPS5 (human); COPZ1 (human); COQ3 (human); COQ6 (human); COTL1 (human); COX15 (human); COX4I1 (human); COX4I2 (human); COX5B (human); CPA1 (human).
Assay in all cases: protein microarray (ProtoArray v5.0), streptavidin-Alexa Fluor 647
Conditions in all cases: 3'-biotin; 20 mM Tris (pH 7.5), 5 mM MgCl2, 100 mM KCl, 0.1% Tween-20, A/T-rich and random oligonucleotide blockers; temperature not stated; high values mean tight binding

The chains behind the UniProt entries cited, without tags or fusion partners. Where a name states a change or a piece, a line headed by the entry shows the natural chain unless it says otherwise.
UniProt P20849: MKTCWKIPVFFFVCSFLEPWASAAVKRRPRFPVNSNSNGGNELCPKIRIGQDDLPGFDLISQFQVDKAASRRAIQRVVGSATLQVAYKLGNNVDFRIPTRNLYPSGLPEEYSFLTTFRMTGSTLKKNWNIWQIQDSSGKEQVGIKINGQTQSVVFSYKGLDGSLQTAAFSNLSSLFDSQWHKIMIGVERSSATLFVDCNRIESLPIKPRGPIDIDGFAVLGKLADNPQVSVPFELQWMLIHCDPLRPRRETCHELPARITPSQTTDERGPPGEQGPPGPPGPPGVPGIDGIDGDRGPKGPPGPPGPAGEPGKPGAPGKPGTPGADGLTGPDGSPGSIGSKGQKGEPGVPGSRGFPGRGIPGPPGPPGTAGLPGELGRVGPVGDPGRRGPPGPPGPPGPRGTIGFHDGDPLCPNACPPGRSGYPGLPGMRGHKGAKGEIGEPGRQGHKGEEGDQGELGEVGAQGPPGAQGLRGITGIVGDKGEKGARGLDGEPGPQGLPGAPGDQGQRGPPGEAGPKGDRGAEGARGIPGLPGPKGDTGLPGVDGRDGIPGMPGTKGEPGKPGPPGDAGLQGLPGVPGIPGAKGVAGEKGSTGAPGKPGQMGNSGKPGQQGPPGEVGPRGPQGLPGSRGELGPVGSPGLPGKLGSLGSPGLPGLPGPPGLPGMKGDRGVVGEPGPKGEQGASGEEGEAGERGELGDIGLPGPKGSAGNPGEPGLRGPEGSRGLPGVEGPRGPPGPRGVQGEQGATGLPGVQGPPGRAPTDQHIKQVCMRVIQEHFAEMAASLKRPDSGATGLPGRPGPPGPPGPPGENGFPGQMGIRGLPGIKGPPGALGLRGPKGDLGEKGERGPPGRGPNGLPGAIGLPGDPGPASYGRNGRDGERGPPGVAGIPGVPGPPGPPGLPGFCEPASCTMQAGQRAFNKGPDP

Another experiment addresses COL9A1 (UniProt P20849).

Where “and” joins values, the source holds several entries; their conditions need not be identical. Equal entries are not always repeated. This is one part of the list. For some assays here: The source does not settle which construct or isoform was used.

As for “GGGAGGCTGAGGCAGG [G4-1 biotinylated (PQS2)]”, the binding signal was -0.343 z-score with COL4A3BP (human); -0.321 z-score and -0.31 z-score with COL4A6 (human); -0.28 z-score in the experiment with COL9A1; -0.32 z-score in the experiment on COMMD1 (human); -0.266 z-score in the experiment on COMMD10 (human); -0.282 z-score in the experiment on COMMD4 (human). Moreover, the binding signal in the experiment on COMT (human) was -0.329 z-score and -0.337 z-score and -0.242 z-score; in the experiment with COMTD1 (human), -0.328 z-score; with COPB2 (human) it was -0.325 z-score; in the experiment with COPS2 (human) it was -0.344 z-score; in the experiment with COPS5 (human), -0.32 z-score; in the experiment with COPZ1 (human) it was -0.344 z-score. In addition, the binding signal with COQ3 (human) was -0.296 z-score; in the experiment with COQ6 (human), -0.338 z-score; with COTL1 (human), -0.279 z-score; in the experiment on COX15 (human), -0.275 z-score; with COX4I1 (human) it was -0.307 z-score; in the experiment on COX4I2 (human), -0.35 z-score. Moreover, the binding signal was -0.326 z-score with COX5B (human) and -0.297 z-score in the experiment on CPA1 (human).

These data come from PMC5996148.
